Assay results: patent US20170306346A1
Residue numbers refer to the chain shown, from its start. Names and notes keep the numbering of the source. No constants are given. Whether binding was seen depends on the method and setting. In cells and extracts the contact can be indirect. Some results given as binding are weak or reduced against the parent protein; the word gives no strength. Tags and fused reporters may be left off the sequences shown.

Amino acid sequences for entries named in this document (tags omitted).
UniProt Q39204: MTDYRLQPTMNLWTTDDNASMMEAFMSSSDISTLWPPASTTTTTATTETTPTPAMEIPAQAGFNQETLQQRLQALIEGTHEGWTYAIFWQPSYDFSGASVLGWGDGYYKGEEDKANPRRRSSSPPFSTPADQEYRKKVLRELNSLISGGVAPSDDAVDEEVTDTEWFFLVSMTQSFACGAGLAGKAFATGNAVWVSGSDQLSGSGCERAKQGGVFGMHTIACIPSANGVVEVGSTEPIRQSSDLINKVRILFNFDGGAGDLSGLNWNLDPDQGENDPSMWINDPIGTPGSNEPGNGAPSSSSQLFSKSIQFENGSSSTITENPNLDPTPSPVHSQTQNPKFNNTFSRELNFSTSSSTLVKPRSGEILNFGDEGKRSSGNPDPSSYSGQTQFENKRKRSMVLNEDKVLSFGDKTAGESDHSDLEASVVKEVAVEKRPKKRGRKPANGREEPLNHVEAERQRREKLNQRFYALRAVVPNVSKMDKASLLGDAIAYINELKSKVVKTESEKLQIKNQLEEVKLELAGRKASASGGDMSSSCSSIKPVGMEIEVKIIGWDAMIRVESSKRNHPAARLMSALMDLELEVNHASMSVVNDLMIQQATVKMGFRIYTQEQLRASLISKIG

Columns and labels:
[1] = molecular target: GST-AtUBC8 (Arabidopsis) [GST: P08515]; experiment: in vitro pull-down, MBP-PUB10 with GST-AtUBC8
[2] = molecular target: GST-AtUBC8 (Arabidopsis) [GST: P08515]; experiment: in vitro pull-down, MBP-PUB10 with GST-AtUBC8, anti-MBP antibody (FIG. 9)
[3] = molecular target: GST-AtUBC36 (Arabidopsis) [GST: P08515]; experiment: in vitro pull-down, MBP-PUB10 with GST-AtUBC36
[4] = molecular target: GST-AtUBC36 (Arabidopsis) [GST: P08515]; experiment: in vitro pull-down, MBP-PUB10 with GST-AtUBC36, anti-MBP antibody (FIG. 9)
[5] = molecular target: GST-MYC2-HA (Arabidopsis thaliana) (UniProt Q39204); experiment: in vitro pull-down with purified proteins
[6] = molecular target: GST-MYC2-HA (Arabidopsis thaliana) (UniProt Q39204); experiment: in vitro pull-down (FIGS. 1B and 1C)
[7] = molecular target: GST-AtUBC2 (Arabidopsis) [GST: P08515]; experiment: in vitro pull-down, MBP-PUB10 with GST-AtUBC2, anti-MBP antibody (FIG. 9)
[8] = molecular target: T1, GST-AtUBC31 (Arabidopsis) (UniProt Q9C8X7); experiment: in vitro pull-down, MBP-PUB10 with GST-AtUBC31, anti-MBP antibody (FIG. 9)
T1 sequence: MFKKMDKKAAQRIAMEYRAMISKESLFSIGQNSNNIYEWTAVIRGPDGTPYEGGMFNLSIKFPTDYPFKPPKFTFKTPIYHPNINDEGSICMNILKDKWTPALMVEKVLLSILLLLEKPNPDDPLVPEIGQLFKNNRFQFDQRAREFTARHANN

[9] = molecular target: GST-AtUBC2 (Arabidopsis) [GST: P08515]; experiment: in vitro pull-down, MBP-PUB10 with GST-AtUBC2
[10] = molecular target: T1, GST-AtUBC31 (Arabidopsis); experiment: in vitro pull-down, MBP-PUB10 with GST-AtUBC31
[11] = molecular target: GST-MYC2-HA (Arabidopsis thaliana) (UniProt Q39204); experiment: in vitro pull-down, MBP-PUB10 bait on amylose resin, GST-MYC2 prey, anti-GST Western blot
[12] = molecular target: myc-MYC2 (Arabidopsis thaliana) (UniProt Q39204); experiment: co-immunoprecipitation with anti-myc antibody from double transgenic Arabidopsis seedlings, Western blot (FIGS. 3C and 3D)
[13] = molecular target: myc-MYC2 (Arabidopsis thaliana) (UniProt Q39204); experiment: co-immunoprecipitation with anti-myc antibody from double transgenic Arabidopsis seedlings, anti-HA Western blot
[14] = molecular target: myc-MYC2 (Arabidopsis thaliana) (UniProt Q39204); experiment: summary of the in vivo results (co-immunoprecipitation in Arabidopsis)
[15] = molecular target: GST-MYC2-HA (Arabidopsis thaliana) (UniProt Q39204); experiment: in vitro pull-down, MBP-PUB10 (C249A) bait, GST-MYC2 prey, anti-GST Western blot
[16] = molecular target: T2, GST-PUB10 (Arabidopsis thaliana) (UniProt Q9C9A6); experiment: in vitro pull-down, GST-PUB10 fusions as baits and MBP-PUB10 fusions as preys
T2 sequence: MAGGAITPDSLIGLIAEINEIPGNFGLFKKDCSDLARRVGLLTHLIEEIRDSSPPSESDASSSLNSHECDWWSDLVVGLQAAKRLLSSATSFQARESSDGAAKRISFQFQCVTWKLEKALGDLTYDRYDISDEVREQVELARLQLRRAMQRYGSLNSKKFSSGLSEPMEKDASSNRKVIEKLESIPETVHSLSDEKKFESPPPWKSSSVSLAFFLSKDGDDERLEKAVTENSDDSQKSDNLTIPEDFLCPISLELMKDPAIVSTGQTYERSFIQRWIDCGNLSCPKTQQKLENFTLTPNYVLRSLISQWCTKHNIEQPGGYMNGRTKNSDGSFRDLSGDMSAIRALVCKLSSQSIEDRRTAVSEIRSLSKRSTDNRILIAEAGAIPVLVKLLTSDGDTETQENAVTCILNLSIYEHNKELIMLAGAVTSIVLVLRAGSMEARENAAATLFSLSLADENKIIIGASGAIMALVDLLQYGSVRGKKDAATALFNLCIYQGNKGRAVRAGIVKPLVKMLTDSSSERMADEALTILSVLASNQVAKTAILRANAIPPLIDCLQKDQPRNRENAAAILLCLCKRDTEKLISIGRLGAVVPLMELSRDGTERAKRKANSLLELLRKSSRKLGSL

[17] = molecular target: T2, GST-PUB10 (Arabidopsis thaliana); experiment: in vitro pull-down, GST-PUB10 fusions as baits and MBP-PUB10 fusions as preys (FIG. 1C)
[18] = molecular target: GST-MYC2-HA (Arabidopsis thaliana) (UniProt Q39204); experiment: in vitro pull-down, MBP-PUB11 deletion derivatives as baits, GST-MYC2 prey (FIG. 7B)
[19] = molecular target: GST-MYC2-HA (Arabidopsis thaliana) (UniProt Q39204); experiment: in vitro pull-down with deletion derivatives
[20] = molecular target: GST-MYC2-HA (Arabidopsis thaliana) (UniProt Q39204); experiment: in vitro pull-down, MBP-PUB10 deletion derivatives as baits, GST-MYC2 prey
[21] = molecular target: GST-MYC2-HA (Arabidopsis thaliana) (UniProt Q39204); experiment: in vitro pull-down, MBP-PUB10 deletion derivatives as baits, GST-MYC2 prey (FIG. 1B)

Measured: binding

B1: MBP-PUB10-6myc (enzyme, not shown: large carriers; small tags and cut ends)
chain: T2 sequence
binds: [1] | [2] | [3] | [4] | [5] | [6] | [7] | [8] | [9] | [10] | [11]

B2: HA-PUB10 (enzyme, not shown: small tags and cut ends)
chain: T2 sequence
binds: [12] | [13] | [14]

B3: MBP-PUB10 (C249A)-6myc (enzyme, not shown: large carriers; small tags and cut ends)
chain: T2 sequence with C249A
binds: [15] | [16] | [6] | [17]

B4: HA-PUB10 (C249A) (enzyme, not shown: small tags and cut ends)
chain: T2 sequence with C249A
binds: [13]

B5: MBP-PUB11-(ARM) (enzyme, not shown: large carriers)
chain: INGRTKNSGDMSVIRALVQRLSSRSTEDRRNAVSEIRSLSKRSTDNRILIAEAGAIPVLVNLLTSEDVATQENAITCVLNLSIYENNKELIMFAGAVTSIVQVLRAGTMEARENAAATLFSLSLADENKIIIGGSGAIPALVDLLENGTPRGKKDAATALFNLCIYHGNKGRAVRAGIVTALVKMLSDSTRHRMVDEALTILSVLANNQDAKSAIVKANTLPALIGILQTDQTRNRENAAAILLSLCKRDTEKLITIGRLGAVVPLMDLSKNGTERGKRKAISLLELLRKACQ
binds: [18]

B6: MBP-PUB10 (ARM)-6myc (enzyme, not shown: large carriers; small tags and cut ends)
chain: GYMNGRTKNSDGSFRDLSGDMSAIRALVCKLSSQSIEDRRTAVSEIRSLSKRSTDNRILIAEAGAIPVLVKLLTSDGDTETQENAVTCILNLSIYEHNKELIMLAGAVTSIVLVLRAGSMEARENAAATLFSLSLADENKIIIGASGAIMALVDLLQYGSVRGKKDAATALFNLCIYQGNKGRAVRAGIVKPLVKMLTDSSSERMADEALTILSVLASNQVAKTAILRANAIPPLIDCLQKDQPRNRENAAAILLCLCKRDTEKLISIGRLGAVVPLMELSRDGTERAKRKANSLLELLRKSSRKLGSL
binds: [19] | [20] | [21]
